Experimental findings from patent US20090175872A1, “Treatment of Conditions Involving Demyelination” (BIOGEN Idec MA Inc., priority 2005, published 2009) are described below.

Amino acid sequences for entries named in this document (tags omitted). A change or cut given only in a name is not applied to a line headed by its entry. Chains listed by the source or under a name are the forms on record and can include a tag or linker. Residues count along the entry.
UniProt P06494, residues 23-1257: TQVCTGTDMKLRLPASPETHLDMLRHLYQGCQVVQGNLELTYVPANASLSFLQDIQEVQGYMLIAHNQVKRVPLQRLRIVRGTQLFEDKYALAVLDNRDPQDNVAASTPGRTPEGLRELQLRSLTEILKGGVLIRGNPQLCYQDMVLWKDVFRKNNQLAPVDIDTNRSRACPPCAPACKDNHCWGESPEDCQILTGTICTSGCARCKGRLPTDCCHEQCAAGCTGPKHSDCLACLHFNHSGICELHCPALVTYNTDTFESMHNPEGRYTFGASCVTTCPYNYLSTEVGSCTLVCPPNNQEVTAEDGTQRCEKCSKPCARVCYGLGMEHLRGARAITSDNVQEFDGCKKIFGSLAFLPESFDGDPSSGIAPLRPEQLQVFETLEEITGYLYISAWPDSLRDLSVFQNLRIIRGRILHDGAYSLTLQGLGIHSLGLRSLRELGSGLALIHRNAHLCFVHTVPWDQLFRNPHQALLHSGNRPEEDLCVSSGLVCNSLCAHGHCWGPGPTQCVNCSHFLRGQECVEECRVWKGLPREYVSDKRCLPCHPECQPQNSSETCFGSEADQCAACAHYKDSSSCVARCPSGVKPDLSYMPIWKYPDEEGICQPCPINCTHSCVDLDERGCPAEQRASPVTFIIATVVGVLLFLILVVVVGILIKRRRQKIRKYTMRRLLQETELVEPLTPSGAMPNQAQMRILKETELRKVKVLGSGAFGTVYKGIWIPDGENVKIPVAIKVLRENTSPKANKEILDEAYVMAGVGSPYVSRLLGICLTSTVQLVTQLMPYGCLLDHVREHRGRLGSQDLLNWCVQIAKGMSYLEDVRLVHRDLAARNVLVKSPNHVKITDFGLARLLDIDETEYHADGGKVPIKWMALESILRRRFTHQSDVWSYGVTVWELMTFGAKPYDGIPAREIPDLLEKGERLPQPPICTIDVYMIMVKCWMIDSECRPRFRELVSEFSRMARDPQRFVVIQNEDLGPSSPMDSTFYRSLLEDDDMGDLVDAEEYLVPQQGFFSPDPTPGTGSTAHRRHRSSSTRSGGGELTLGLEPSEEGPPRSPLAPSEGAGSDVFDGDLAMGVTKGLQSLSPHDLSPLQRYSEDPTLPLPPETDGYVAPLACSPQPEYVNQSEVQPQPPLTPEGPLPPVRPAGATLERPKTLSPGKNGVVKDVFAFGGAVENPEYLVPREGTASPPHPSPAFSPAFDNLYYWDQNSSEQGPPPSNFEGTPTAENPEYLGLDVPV
rat Sp35 (endogenous, oligodendrocytes, cortex and spinal cord tissue) (A0A8I5ZPI2, form named): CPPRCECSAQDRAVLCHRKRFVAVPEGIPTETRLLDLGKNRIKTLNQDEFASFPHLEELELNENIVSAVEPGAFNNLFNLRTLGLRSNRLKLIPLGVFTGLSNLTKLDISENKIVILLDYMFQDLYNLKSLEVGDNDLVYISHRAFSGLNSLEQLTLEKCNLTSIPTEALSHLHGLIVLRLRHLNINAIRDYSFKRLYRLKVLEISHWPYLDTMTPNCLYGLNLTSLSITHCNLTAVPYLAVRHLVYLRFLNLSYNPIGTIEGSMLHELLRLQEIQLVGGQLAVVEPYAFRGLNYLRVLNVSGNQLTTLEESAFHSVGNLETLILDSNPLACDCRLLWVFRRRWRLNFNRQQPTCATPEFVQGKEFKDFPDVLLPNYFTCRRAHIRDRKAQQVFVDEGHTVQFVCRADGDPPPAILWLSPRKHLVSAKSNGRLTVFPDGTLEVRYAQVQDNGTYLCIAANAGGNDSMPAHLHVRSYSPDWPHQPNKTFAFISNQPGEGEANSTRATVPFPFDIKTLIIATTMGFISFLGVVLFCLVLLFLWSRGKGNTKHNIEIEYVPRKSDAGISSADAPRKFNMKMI

Results are given in words; binding and its absence hold for the method and conditions named. In cells and extracts the contact can be indirect. Some entries that bind do so weakly or less than the wild type.

In assay [1] the target is rat ErbB2 (endogenous, oligodendrocytes and spinal cord tissue) (rat) (UniProt P06494). Nature of the assay: co-immunoprecipitation from oligodendrocyte lysates.
For assay [2] the target is unchanged. Nature of the assay: co-immunoprecipitation from lysates of O4+ oligodendrocytes and spinal cord tissue.

For “rat Sp35 (endogenous, oligodendrocytes, cortex and spinal cord tissue) (from UniProt A0A8I5ZPI2 36-614) (receptor)”, the binding result in assay [1] and in assay [2] was “binds” in each case.
